These are yes or no findings as the source states them, for the method shown. In cells and extracts the contact can be indirect. Some binding calls cover weakened binding; strength is not graded here. Where a sequence is shown, tags or fusion partners need not be part of it.
T1: caveolin-1, endogenous in rat aortic SMC (rat) (UniProt P41350)
T1 sequence (looked up): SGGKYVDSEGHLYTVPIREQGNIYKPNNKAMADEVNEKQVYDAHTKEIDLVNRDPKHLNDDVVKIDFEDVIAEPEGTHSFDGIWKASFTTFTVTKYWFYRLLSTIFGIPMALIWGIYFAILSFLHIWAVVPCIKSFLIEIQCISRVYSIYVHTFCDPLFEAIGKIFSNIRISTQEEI

T2: RHAMM (Receptor for HA-Mediated Motility, CD168), endogenous rat protein (rat) (UniProt P97779)
T2 sequence (looked up): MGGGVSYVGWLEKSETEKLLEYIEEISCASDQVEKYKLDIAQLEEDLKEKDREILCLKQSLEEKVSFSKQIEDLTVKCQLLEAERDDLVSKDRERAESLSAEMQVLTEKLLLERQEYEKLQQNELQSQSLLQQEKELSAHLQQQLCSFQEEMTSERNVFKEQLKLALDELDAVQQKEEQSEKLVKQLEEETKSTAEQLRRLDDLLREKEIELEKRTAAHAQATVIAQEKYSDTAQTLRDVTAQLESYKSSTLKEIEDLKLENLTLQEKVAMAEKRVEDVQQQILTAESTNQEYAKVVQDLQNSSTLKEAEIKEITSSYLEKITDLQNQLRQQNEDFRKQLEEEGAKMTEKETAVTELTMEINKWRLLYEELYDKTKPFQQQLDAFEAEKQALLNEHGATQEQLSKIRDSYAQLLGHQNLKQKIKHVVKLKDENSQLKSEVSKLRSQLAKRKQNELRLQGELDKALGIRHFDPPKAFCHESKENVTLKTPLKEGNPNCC


What was measured:
[1] = biological target: T1, caveolin-1, endogenous in rat aortic SMC (rat); assay: co-immunoprecipitation from SMC lysate with caveolin-1 antibody, immunoblot for RHAMM
[2] = biological target: T1, caveolin-1, endogenous in rat aortic SMC (rat); assay: co-immunoprecipitation, FIG. 9C
[3] = biological target: T2, RHAMM (Receptor for HA-Mediated Motility, CD168), endogenous rat protein (rat); assay: co-immunoprecipitation from SMC lysate with R36, immunoblot for caveolin-1

Row | Binder | binding [1] | binding [2] | binding [3]
1 | RHAMM (Receptor for HA-Mediated Motility, CD168), endogenous rat protein (receptor, UniProt P97779 1-498, looked up) MGGGVSYVGWLEKSETEKLLEYIEEISCASDQVEKYKLDIAQLEEDLKEKDREILCLKQSLEEKVSFSKQIEDLTVKCQLLEAERDDLVSKDRERAESLSAEMQVLTEKLLLERQEYEKLQQNELQSQSLLQQEKELSAHLQQQLCSFQEEMTSERNVFKEQLKLALDELDAVQQKEEQSEKLVKQLEEETKSTAEQLRRLDDLLREKEIELEKRTAAHAQATVIAQEKYSDTAQTLRDVTAQLESYKSSTLKEIEDLKLENLTLQEKVAMAEKRVEDVQQQILTAESTNQEYAKVVQDLQNSSTLKEAEIKEITSSYLEKITDLQNQLRQQNEDFRKQLEEEGAKMTEKETAVTELTMEINKWRLLYEELYDKTKPFQQQLDAFEAEKQALLNEHGATQEQLSKIRDSYAQLLGHQNLKQKIKHVVKLKDENSQLKSEVSKLRSQLAKRKQNELRLQGELDKALGIRHFDPPKAFCHESKENVTLKTPLKEGNPNCC | binds | binds | 
2 | caveolin-1, endogenous in rat aortic SMC (protein, UniProt P41350 2-178, looked up) SGGKYVDSEGHLYTVPIREQGNIYKPNNKAMADEVNEKQVYDAHTKEIDLVNRDPKHLNDDVVKIDFEDVIAEPEGTHSFDGIWKASFTTFTVTKYWFYRLLSTIFGIPMALIWGIYFAILSFLHIWAVVPCIKSFLIEIQCISRVYSIYVHTFCDPLFEAIGKIFSNIRISTQEEI |  |  | binds

— patent publication US20070179085A1, “MODULATION OF RHAMM-CAVEOLIN/LIPID RAFT INTERACTIONS TO AFFECT DEVELOPMENT, RESPONSES TO TISSUE INJURY, ANGIOGENESIS, TUMORIGENESIS, METASTASIS AND GROWTH FACTOR/CYTOKINE RESPONSES” (priority 2005, published 2007)
